Taken from: PubChem BioAssay AID602196 (INSERM, 2012)
Assay: 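Modifiers of cisplatin sensitivity in A549 cells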. Cell system: human A549 lung cancer cells. Reagents: siRNA pair against human genes. Duration: 48 h transfection before cisplatin; time from cisplatin to read-out not stated. Challenge: cisplatin at a dose killing half of control-siRNA cells; exact dose and duration not given. Measured: 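Shift in cisplatin death relative to control siRNA, from -50 (all cells die) to +50 (no cells die); siRNAs harmful on their own scored 0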. Direction: two-siRNA summed score (-2 to +2): higher = both siRNAs protect from cisplatin killing; -2 means both sensitise. Hit rule: 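siRNAs harmful alone (LDH or WST-1) get 0; others get +1 for less and -1 for more cisplatin killing; genes are active when the two siRNAs give the same sign, summing to ±2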. Calls: active = both siRNAs shift cisplatin killing the same way; inactive = no consistent shift, or siRNA harmful alone.
In all, the deposit lists about 23,000 reagents; below is an unselected part. Of all reagents, 455 (2%) were called active. 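Active includes both protection and sensitisation; some change values fall well beyond the stated -50 to +50 range.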 Further read-outs or replicates are left out here. Not given: the amount of reagent.

For ZNF22 (GeneID 7570), what does the deposit list?
two-siRNA summed score (-2 to +2): 1; outcome: inactive

Which result is listed for NOMO1 (GeneID 23420)?
two-siRNA summed score (-2 to +2): 0; outcome: inactive

For MAPK10 (GeneID 5602), what was measured?
two-siRNA summed score (-2 to +2): 0; outcome: inactive

What did the screen give for MFAP1 (GeneID 4236)?
two-siRNA summed score (-2 to +2): 0; outcome: inactive

For LOC389438, what was measured?
two-siRNA summed score (-2 to +2): 0; outcome: inactive

For PTGIR (GeneID 5739), what does the deposit list?
two-siRNA summed score (-2 to +2): 1; outcome: inactive

What is on record for RCBTB2 (GeneID 1102)?
two-siRNA summed score (-2 to +2): 0; outcome: inactive

With STX2 (GeneID 2054), what does the deposit list?
two-siRNA summed score (-2 to +2): 1; outcome: inactive

What did the screen give for SUSD3 (GeneID 203328)?
two-siRNA summed score (-2 to +2): 1; outcome: inactive

What is on record for LOC440298?
two-siRNA summed score (-2 to +2): 0; outcome: inactive

What is on record for PCDHGB1 (GeneID 56104)?
two-siRNA summed score (-2 to +2): 0; outcome: inactive

With TAMM41 (GeneID 132001), how do the results read?
two-siRNA summed score (-2 to +2): 0; outcome: inactive

With TOR1A (GeneID 1861), how do the results read?
two-siRNA summed score (-2 to +2): 0; outcome: inactive

With BCO1 (GeneID 53630), what was measured?
two-siRNA summed score (-2 to +2): 0; outcome: inactive

With ABO (GeneID 28), what was measured?
two-siRNA summed score (-2 to +2): 0; outcome: inactive

How did the screen score SUCLG2 (GeneID 8801)?
two-siRNA summed score (-2 to +2): 0; outcome: inactive

How did the screen score LOC441038?
two-siRNA summed score (-2 to +2): 0; outcome: inactive

With C7orf25 (GeneID 79020), what does the deposit list?
two-siRNA summed score (-2 to +2): 0; outcome: inactive

With LOC401191 (GeneID 401191), what does the deposit list?
two-siRNA summed score (-2 to +2): 2; outcome: active

For KANK3 (GeneID 256949), what was measured?
two-siRNA summed score (-2 to +2): 0; outcome: inactive

With PPP2R3A (GeneID 5523), what does the deposit list?
two-siRNA summed score (-2 to +2): 0; outcome: inactive

Which result is listed for RCN1 (GeneID 5954)?
two-siRNA summed score (-2 to +2): -1; outcome: inactive

With ACOXL-AS1 (GeneID 400997), what does the deposit list?
two-siRNA summed score (-2 to +2): 1; outcome: inactive

For NYNRIN (GeneID 57523), what does the deposit list?
two-siRNA summed score (-2 to +2): 0; outcome: inactive

3 of these entries in another layout:
{"gene": "C7orf25 (GeneID 79020)", "two-siRNA summed score (-2 to +2)": 0, "outcome": "inactive"}
{"gene": "LOC401191 (GeneID 401191)", "two-siRNA summed score (-2 to +2)": 2, "outcome": "active"}
{"gene": "KANK3 (GeneID 256949)", "two-siRNA summed score (-2 to +2)": 0, "outcome": "inactive"}

The listing continues:
What did the screen give for LRRIQ1 (GeneID 84125)?
two-siRNA summed score (-2 to +2): 0; outcome: inactive

For SCAMP2 (GeneID 10066), how do the results read?
two-siRNA summed score (-2 to +2): 0; outcome: inactive

For NDUFS6 (GeneID 4726), what was measured?
two-siRNA summed score (-2 to +2): 0; outcome: inactive

Which result is listed for MYO7A (GeneID 4647)?
two-siRNA summed score (-2 to +2): 0; outcome: inactive

How did the screen score ANXA2R-AS1 (GeneID 153684)?
two-siRNA summed score (-2 to +2): -1; outcome: inactive

With TECRL (GeneID 253017), what does the deposit list?
two-siRNA summed score (-2 to +2): 0; outcome: inactive

Which result is listed for SLFN11 (GeneID 91607)?
two-siRNA summed score (-2 to +2): 0; outcome: inactive

How did the screen score ORAI3 (GeneID 93129)?
two-siRNA summed score (-2 to +2): 0; outcome: inactive

For ARHGAP21 (GeneID 57584), what does the deposit list?
two-siRNA summed score (-2 to +2): 0; outcome: inactive

What did the screen give for LOC391105?
two-siRNA summed score (-2 to +2): -1; outcome: inactive

What is on record for LOC400954?
two-siRNA summed score (-2 to +2): 0; outcome: inactive

With SPARCL1 (GeneID 8404), how do the results read?
two-siRNA summed score (-2 to +2): 0; outcome: inactive

How did the screen score CDX1 (GeneID 1044)?
two-siRNA summed score (-2 to +2): 1; outcome: inactive

With TFPI2 (GeneID 7980), how do the results read?
two-siRNA summed score (-2 to +2): 0; outcome: inactive

With STRC (GeneID 161497), what does the deposit list?
two-siRNA summed score (-2 to +2): 0; outcome: inactive

With RPF2 (GeneID 84154), what was measured?
two-siRNA summed score (-2 to +2): 0; outcome: inactive
